Source: patent publication US7511061B2, “Triazoles as farnesyl transferase inhibitors” (Janssen Pharmaceutica N.V., priority 1999, dated 2009)
Some of these results come from one statement about several compounds together.

target: farnesyl protein transferase (FPTase) (Homo sapiens, UniProt P49354+P49356); experiment: In vitro assay for inhibition of farnesyl protein transferase; type: biochemical; conditions: test dose of 10^−5 M or lower
Protocol: An in vitro assay for inhibition of farnesyl transferase was performed essentially as described in WO 98/40383, pages 33-34.

SMILES | inhibition of FPTase activity
COc1cc(C(=O)N(CCc2ccc(Br)cc2)Cc2nncn2Cc2ccc(C#N)cc2)nc2ccccc12 [compound 145] | at least 5%
CCC(c1ccc(Br)cc1)N(Cc1ccc2ccccc2n1)Cc1nncn1Cc1ccc(C#N)cc1 (stereo not drawn) [compound 129] | at least 5%
Brc1ccc(CCN(Cc2ccc(Oc3ccccc3)cc2)Cc2nncn2CCCCc2ccccc2)cc1 [compound 13] | at least 5%
COc1ccc(CCCn2cnnc2CN(CCCCc2ccccc2)Cc2nnc[nH]2)cc1 [compound 26] | at least 5%
N#Cc1ccc(Cn2cnnc2CN(Cc2c(F)ccc(F)c2F)c2ccc(Oc3ccccc3)cc2)cc1 [compound 62] | at least 5%
N#Cc1ccc(Cn2cnnc2CN(c2ccc(C(=O)c3ccccc3)cc2)c2cc(F)cc(F)c2)cc1 [compound 75] | at least 5%
N#Cc1ccc(Cn2cnnc2CN(CCc2ccc(Br)cc2)c2nccc(C(F)(F)F)n2)cc1 [compound 160] | at least 5%
N#Cc1ccc(Cn2cnnc2CN(Cc2ccc(F)cc2F)c2ccc(Oc3ccccc3)cc2)cc1 [compound 48] | at least 5%
N#Cc1ccc(Cn2cnnc2CN(Cc2c(Cl)ccc(Cl)c2Cl)c2ccc(Oc3ccccc3)cc2)cc1 [compound 64] | at least 5%
O=[N+]([O-])c1ccc(Cn2cnnc2CN(CCC(c2ccccc2)c2ccccc2)Cc2nnc[nH]2)cc1 [compound 25] | at least 5%
N#Cc1ccc(Cn2cnnc2CN(CCc2ccc(Br)cc2)c2nc3ccccc3s2)cc1 [compound 162] | at least 5%
N#Cc1ccc(Cn2cnnc2CN(CCC(c2ccccc2)c2ccccc2)S(=O)(=O)c2ccc(F)cc2)cc1 [compound 4] | at least 5%
N#Cc1ccc(Cn2cnnc2CN(CCc2ccc(Br)cc2)C(=O)c2ccnc3ccccc23)cc1 [compound 146] | at least 5%
N#Cc1ccc(Cn2cnnc2CN(CCc2ccc(F)cc2)c2ccc(C(=O)c3ccccc3)cc2)cc1 [compound 80] | at least 5%
N#Cc1ccc(Cn2cnnc2CN(Cc2ccc(Cl)cc2Cl)c2ccc(Oc3ccccc3)cc2)cc1 [compound 54] | at least 5%
N#Cc1ccc(Cn2cnnc2CN(CCc2ccccc2F)c2ccc(C(=O)c3ccccc3)cc2)cc1 [compound 79] | at least 5%
N#Cc1ccc(Cn2cnnc2CN(Cc2ccc(F)c(F)c2F)c2ccc(Oc3ccccc3)cc2)cc1 [compound 61] | at least 5%
N#Cc1ccc(Cn2cnnc2CN(Cc2ccc3ccccc3n2)Cc2ccc(F)cc2F)cc1 [compound 126] | at least 5%
N#Cc1ccc(Cn2cnnc2CN(Cc2ccc(Cl)c(Cl)c2)c2ccc(Oc3ccccc3)cc2)cc1 [compound 55] | at least 5%
N#Cc1ccc(Cn2cnnc2CN(Cc2cc(F)cc(F)c2)c2ccc(Oc3ccccc3)cc2)cc1 [compound 52] | at least 5%
N#Cc1ccc(Cn2cnnc2CN(CCc2ccc(Br)cc2)c2nccc(Cl)n2)cc1 [compound 163] | at least 5%
Clc1cccc(Cn2cnnc2CN(CCc2ccc(Br)cc2)Cc2ccc(Oc3ccccc3)cc2)c1 [compound 12] | at least 5%
Brc1ccc(CCN(Cc2ccc(Oc3ccccc3)cc2)Cc2nncn2CC#Cc2ccccc2)cc1 [compound 11] | at least 5%
N#Cc1ccc(CN(CCc2ccc(Br)cc2)Cc2nncn2Cc2ccc(C#N)cc2)cc1 [compound 108] | at least 5%
N#Cc1ccc(Cn2cnnc2CN(CCc2ccc(Br)cc2)c2ncccn2)cc1 [compound 159] | at least 5%
N#Cc1ccc(Cn2cnnc2CN(CCCc2ccccc2)Cc2ccc3ccccc3n2)cc1 [compound 176] | at least 5%
N#Cc1ccc(Cn2cnnc2CN(Cc2cc(Cl)cc(Cl)c2)c2ccc(Oc3ccccc3)cc2)cc1 [compound 56] | at least 5%

SMILES | inhibition of FPTase activity
N#Cc1ccc(Cn2cnnc2CN(CCc2ccc(Br)cc2)Cc2nnc[nH]2)cc1 [compound 23] | at least 5%
N#Cc1ccc(Cn2cnnc2CN(Cc2ccc(Br)cc2F)c2ccc(Oc3ccccc3)cc2)cc1 [compound 59] | at least 5%
N#Cc1ccc(Cn2cnnc2CN(Cc2cccc(F)c2F)c2ccc(Oc3ccccc3)cc2)cc1 [compound 49] | at least 5%
N#Cc1ccc(Cn2cnnc2CN(Cc2ccc(F)cc2Cl)c2ccc(Oc3ccccc3)cc2)cc1 [compound 57] | at least 5%
N#Cc1ccc(Cn2cnnc2CN(Cc2ccc(F)c(F)c2)c2ccc(Oc3ccccc3)cc2)cc1 [compound 51] | at least 5%
CC(CCN(CCc1cccs1)Cc1nncn1Cc1ccc(C#N)cc1)c1ccccc1 (stereo not drawn) [compound 45] | at least 5%
Cc1cccc(Cn2cnnc2CN(CCc2ccc(Br)cc2)Cc2ccc3ccccc3n2)n1 [compound 180] | at least 5%
N#Cc1ccc(Cn2cnnc2CN(Cc2c(F)cccc2F)c2ccc(Oc3ccccc3)cc2)cc1 [compound 50] | at least 5%
N#Cc1ccc(Cn2cnnc2CN(Cc2ccc(F)c(Br)c2)c2ccc(Oc3ccccc3)cc2)cc1 [compound 60] | at least 5%
N#Cc1ccc(Cn2cnnc2CN(CCC(c2ccccc2)c2ccccc2)Cc2nnc[nH]2)cc1 [compound 24] | at least 5%
Brc1ccc(CCN(Cc2nnc[nH]2)Cc2nncn2CC#Cc2ccccc2)cc1 [compound 29] | at least 5%
N#Cc1ccc(Cn2cnnc2CN(c2ccc(C(=O)c3ccccc3)cc2)c2ccc(F)cc2F)cc1 [compound 85] | at least 5%
N#Cc1ccc(CN(Cc2ccc(F)cc2F)Cc2nncn2Cc2ccc(C#N)cc2)cc1 [compound 83] | at least 5%
COC(=O)c1cc(C)nc(N(CCc2ccc(Br)cc2)Cc2nncn2Cc2ccc(C#N)cc2)n1 [compound 161] | at least 5%
N#Cc1ccc(CN(Cc2nncn2Cc2ccc(C#N)cc2)c2cccc(F)c2F)cc1 [compound 69] | at least 5%
N#Cc1ccc(Cn2cnnc2CN(CCc2ccc(Br)cc2)Cc2cc3ccccc3[n+](Cc3ccc(C#N)cc3)c2)cc1.O=C([O-])C(F)(F)F [compound 140] | at least 5%
N#Cc1ccc(Cn2cnnc2CN(Cc2cc(Cl)cc(Cl)c2Cl)c2ccc(Oc3ccccc3)cc2)cc1 [compound 63] | at least 5%
N#Cc1ccc(Cn2cnnc2CN(CCc2ccc(Br)cc2)Cc2cc[n+](Cc3ccc(C#N)cc3)c3ccccc23)cc1 [compound 154] | at least 5%
CC(CN(Cc1ccc2ccccc2n1)Cc1nncn1Cc1ccc(C#N)cc1)c1ccccc1 (stereo not drawn) [compound 170] | at least 5%
N#Cc1ccc(Cn2cnnc2CN(CCc2ccc(Br)cc2)C(=O)c2cc3ccccc3[n+](Cc3ccc(C#N)cc3)c2)cc1.O=C([O-])C(F)(F)F [compound 149] | at least 5%
N#Cc1ccc(Cn2cnnc2CN(CCc2ccc(Br)cc2)Cc2cnc(-c3ccccc3)[nH]2)cc1 [compound 153] | at least 5%
Fc1ccc(Cn2cnnc2CN(CCc2ccc(Br)cc2)Cc2ccc(Oc3ccccc3)cc2)cc1 [compound 10] | at least 5%
N#Cc1ccc(Cn2cnnc2CN(Cc2c(F)cccc2Cl)c2ccc(Oc3ccccc3)cc2)cc1 [compound 58] | at least 5%
Cc1ccc(S(=O)(=O)N(CCCCc2ccccc2)Cc2nncn2CC#Cc2ccccc2)cc1 [compound 16] | at least 5%
N#Cc1ccc(Cn2cnnc2CN(Cc2cccc(Cl)c2Cl)c2ccc(Oc3ccccc3)cc2)cc1 [compound 53] | at least 5%
Cn1c(CN(CCc2ccc(Br)cc2)Cc2nncn2Cc2ccc(C#N)cc2)[n+](Cc2ccc(C#N)cc2)c2ccccc21.O=C([O-])C(F)(F)F [compound 156] | at least 5%
Clc1cc(Cn2cnnc2CN(CCc2ccc(Br)cc2)Cc2ccc3ccccc3n2)cnc1Cl [compound 182] | at least 5%
